Source: PubChem BioAssay AID504764 (Drosophila RNAi Screening Center, 2011)

Purpose: 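Genome-wide screen for regulators of Notch-driven gene expression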 (primary screen)
System: Drosophila Kc167 cells
Reagents: long dsRNA against Drosophila genes
Duration: about 5 days (4 days dsRNA, then 24 h after transfection)
Conditions: transfection of constitutively active membrane-tethered Notch lacking the extracellular domain, read 24 h later
Read-out: 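Firefly luciferase from an E(spl)m3 reporter with active Notch, plus control-promoter and uninduced reporter wells for normalisation; unnormalised counts, duplicate wells a and b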
Scale: induced reporter light, run 1, well a and induced reporter light, run 1, well b: higher = more light from the Notch target reporter with active Notch; control promoter light, run 1, well a and control promoter light, run 1, well b: higher = more light from the viral control promoter (cell number, transfection, viability); uninduced reporter light, run 1, well a: higher = more light from the Notch target reporter without active Notch
Hit rule: 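Wells with low control signal or poorly matching duplicates excluded; duplicates averaged; per source plate, z beyond ±2 for induced/control log2 ratio or beyond ±1.8 for induced/uninduced marks a hit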
Calls: active = modifier hit (raised or lowered Notch signal); inactive = not a hit
The deposit covers about 22,000 reagents; shown is an unselected part of those that have a named target and a result. Over the whole deposit, 403 (1.9%) are marked active. 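Unnormalised raw counts per well; ratio z-scores behind the hit calls and whether each hit raises or lowers signal are not deposited.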 Entries without a mark were called inactive. Reagents against one gene are numbered here. Names joined by + are all predicted targets of the reagent. The record does not give: the amount of reagent.

For CG4004 (GeneID 32226) #1, how do the results read?
induced reporter light, run 1, well a: 2.33e5; induced reporter light, run 1, well b: 2.38e5; control promoter light, run 1, well a: 2.75e5; control promoter light, run 1, well b: 2.96e5; uninduced reporter light, run 1, well a: 16825

With CG4004 (GeneID 32226) #2, what does the deposit list?
induced reporter light, run 1, well a: 1.51e5; induced reporter light, run 1, well b: 1.56e5; control promoter light, run 1, well a: 2.83e5; control promoter light, run 1, well b: 2.86e5; uninduced reporter light, run 1, well a: 10820

With JhI-21 (GeneID 34624), how do the results read?
induced reporter light, run 1, well a: 1.77e5; induced reporter light, run 1, well b: 2.29e5; control promoter light, run 1, well a: 1.77e5; control promoter light, run 1, well b: 1.55e5; uninduced reporter light, run 1, well a: 14645

Which result is listed for Spag1 (GeneID 43239)?
induced reporter light, run 1, well a: 1.56e5; induced reporter light, run 1, well b: 1.22e5; control promoter light, run 1, well a: 2.26e5; control promoter light, run 1, well b: 2.03e5; uninduced reporter light, run 1, well a: 12510

With CG15772 (GeneID 31498), what does the deposit list?
induced reporter light, run 1, well a: 1.44e5; induced reporter light, run 1, well b: 1.54e5; control promoter light, run 1, well a: 2.66e5; control promoter light, run 1, well b: 2.57e5; uninduced reporter light, run 1, well a: 11335

Which result is listed for CG42699 (GeneID 31507) #1?
induced reporter light, run 1, well a: 1.99e5; induced reporter light, run 1, well b: 1.74e5; control promoter light, run 1, well a: 2.61e5; control promoter light, run 1, well b: 2.13e5; uninduced reporter light, run 1, well a: 13960

With CG42699 (GeneID 31507) #2, how do the results read?
induced reporter light, run 1, well a: 1.50e5; induced reporter light, run 1, well b: 1.54e5; control promoter light, run 1, well a: 1.97e5; control promoter light, run 1, well b: 2.13e5; uninduced reporter light, run 1, well a: 10820

What did the screen give for CG14968 (GeneID 38406)?
induced reporter light, run 1, well a: 1.56e5; induced reporter light, run 1, well b: 1.33e5; control promoter light, run 1, well a: 2.11e5; control promoter light, run 1, well b: 3.03e5; uninduced reporter light, run 1, well a: 5870

Which result is listed for CG9897 + asRNA:CR42742?
induced reporter light, run 1, well a: 89175; induced reporter light, run 1, well b: 73655; control promoter light, run 1, well a: 77830; control promoter light, run 1, well b: 84055; uninduced reporter light, run 1, well a: 4785

With CG15443 (GeneID 33656), what was measured?
induced reporter light, run 1, well a: 2.11e5; induced reporter light, run 1, well b: 1.69e5; control promoter light, run 1, well a: 2.32e5; control promoter light, run 1, well b: 2.84e5; uninduced reporter light, run 1, well a: 11605

Just “induced reporter light, run 1, well b”, for 3 of the entries above:
CG4004 (GeneID 32226) #1: 2.38e5
CG4004 (GeneID 32226) #2: 1.56e5
JhI-21 (GeneID 34624): 2.29e5

Further entries follow:
With lectin-28C (GeneID 53542), what was measured?
induced reporter light, run 1, well a: 1.21e5; induced reporter light, run 1, well b: 1.53e5; control promoter light, run 1, well a: 80610; control promoter light, run 1, well b: 1.18e5; uninduced reporter light, run 1, well a: 24535

For Boh2 (GeneID 34559), what does the deposit list?
induced reporter light, run 1, well a: 1.12e5; induced reporter light, run 1, well b: 1.51e5; control promoter light, run 1, well a: 67735; control promoter light, run 1, well b: 1.07e5; uninduced reporter light, run 1, well a: 17505

How did the screen score Tdc2 (GeneID 246620)?
induced reporter light, run 1, well a: 2.00e5; induced reporter light, run 1, well b: 1.72e5; control promoter light, run 1, well a: 2.02e5; control promoter light, run 1, well b: 2.01e5; uninduced reporter light, run 1, well a: 12960

What did the screen give for Oseg5 (GeneID 35349)?
induced reporter light, run 1, well a: 54400; induced reporter light, run 1, well b: 47315; control promoter light, run 1, well a: 49905; control promoter light, run 1, well b: 60085; uninduced reporter light, run 1, well a: 2405

How did the screen score SP1029 (GeneID 53473)?
induced reporter light, run 1, well a: 1.41e5; induced reporter light, run 1, well b: 1.42e5; control promoter light, run 1, well a: 1.67e5; control promoter light, run 1, well b: 1.48e5; uninduced reporter light, run 1, well a: 11750

With sax (GeneID 35731), how do the results read?
induced reporter light, run 1, well a: 2.02e5; induced reporter light, run 1, well b: 1.74e5; control promoter light, run 1, well a: 1.65e5; control promoter light, run 1, well b: 1.95e5; uninduced reporter light, run 1, well a: 15100

With pbl (GeneID 38879), what was measured?
induced reporter light, run 1, well a: 53685; induced reporter light, run 1, well b: 36860; control promoter light, run 1, well a: 49655; control promoter light, run 1, well b: 20565; uninduced reporter light, run 1, well a: 3865

For sit (GeneID 42658), what was measured?
induced reporter light, run 1, well a: 2.09e5; induced reporter light, run 1, well b: 1.72e5; control promoter light, run 1, well a: 2.01e5; control promoter light, run 1, well b: 2.11e5; uninduced reporter light, run 1, well a: 15028
